This note sets out measurements from US11680085B2 (VIROMETIX AG, priority 2017, dated 2023).

A short description of the data set: general procedure: Fmoc solid-phase peptide synthesis; Tentagel R Ram resin; PyBOP (for 3-maleimido-propionic acid). To be noted: whole synthesis, analytical RP-HPLC; analytical UPLC for conjugates, scale 0.5 mmol.

As for NSELLSLIND-Nle-PITNDQKKL-Nle-SNNVQSVRa, the “final HPLC purity” value was 80.9%.
